The exact form of at least one protein or probe is not confirmed. Results from cells or extracts need not show a direct contact. A negative result means that nothing was seen under these conditions. Tags and fusion partners may be left off the protein sequences shown.
Biological target: T1, 3×FNLDD (bacterial LexA fusion) (UniProt P0A7C2)
T1 sequence (looked up, limits assumed): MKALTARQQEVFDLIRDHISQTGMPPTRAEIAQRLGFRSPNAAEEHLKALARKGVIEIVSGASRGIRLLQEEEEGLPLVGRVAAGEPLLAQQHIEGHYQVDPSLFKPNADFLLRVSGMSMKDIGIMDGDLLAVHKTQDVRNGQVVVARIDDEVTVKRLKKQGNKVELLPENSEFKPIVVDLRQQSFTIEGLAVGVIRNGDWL
Assay: pull-down
Settings: negative control; anti-FLAG ChIP from crosslinked Ba/F3 cells, Southern blot; protein in cells; protein details: 3×FLAG, NLS

TAGGGTTAGGGTTAGGGTT (double strand) [telomeric TTAGGG repeat]
binding result: no binding

From patent US20160138081
